These are yes or no findings as the source states them, for the method shown. In cells and extracts the contact can be indirect. Binding can be weak; no strength is given.
Target: GST-Him (Drosophila) (UniProt Q9VWX6)
Experiment: pull-down; GST fusion proteins (GST-Him, GST-HimΔWRPW, GST alone) as baits, radiolabelled Groucho as input; autoradiograph of a protein gel

Amino acid sequences for entries named in this document (tags omitted). A change or cut given only in a name is not applied to a line headed by its entry.
UniProt Q9VWX6: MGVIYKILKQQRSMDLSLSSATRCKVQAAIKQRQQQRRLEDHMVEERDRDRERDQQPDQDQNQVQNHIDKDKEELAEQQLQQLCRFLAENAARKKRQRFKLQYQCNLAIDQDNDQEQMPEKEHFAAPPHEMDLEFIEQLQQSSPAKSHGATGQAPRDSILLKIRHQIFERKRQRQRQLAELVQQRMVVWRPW
UniProt P16371: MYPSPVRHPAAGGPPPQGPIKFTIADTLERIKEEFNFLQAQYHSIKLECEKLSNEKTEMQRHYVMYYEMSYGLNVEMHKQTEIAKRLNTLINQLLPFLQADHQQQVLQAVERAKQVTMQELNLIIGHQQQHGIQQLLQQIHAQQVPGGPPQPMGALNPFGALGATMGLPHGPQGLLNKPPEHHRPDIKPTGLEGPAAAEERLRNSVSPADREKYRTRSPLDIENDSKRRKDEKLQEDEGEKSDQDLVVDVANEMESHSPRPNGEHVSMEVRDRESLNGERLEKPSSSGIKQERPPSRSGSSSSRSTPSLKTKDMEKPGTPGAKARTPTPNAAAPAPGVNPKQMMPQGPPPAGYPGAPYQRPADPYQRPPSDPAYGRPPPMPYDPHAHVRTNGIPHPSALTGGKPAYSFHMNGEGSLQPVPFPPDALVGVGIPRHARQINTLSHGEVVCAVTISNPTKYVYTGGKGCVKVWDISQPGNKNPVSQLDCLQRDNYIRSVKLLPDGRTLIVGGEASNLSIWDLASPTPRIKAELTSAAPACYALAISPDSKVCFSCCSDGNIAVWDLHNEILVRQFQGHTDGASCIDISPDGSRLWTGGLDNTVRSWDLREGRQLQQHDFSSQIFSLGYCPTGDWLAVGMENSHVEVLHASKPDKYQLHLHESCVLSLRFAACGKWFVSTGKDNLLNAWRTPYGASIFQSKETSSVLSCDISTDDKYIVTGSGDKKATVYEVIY

binding: binds
Substance: Groucho (from UniProt P16371 1-730)

Source: PMC1955682
